Measured values: PubChem BioAssay AID493014 (National Center for Advancing Translational Sciences (NCATS), 2011)
The list shows a part of the results. Further columns of the screen follow, without active or inactive calls. The list favours compounds with an active or inconclusive main result. Words in brackets tell the shape of the fitted curve; partial curves, single points and poor fits give uncertain potencies.

Test: qHTS Assay to Find Inhibitors of Chronic Active B-Cell Receptor Signaling
Conditions: ABC-DLBCL IkBa-CBG/CBR reporter, luminescence ratio (green luciferase fused to IkBa over red control in TMD8 lymphoma cells), 4 h
Outline: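 Concentration-response series (up to 46 uM) were applied to TMD8 dual-reporter cells for 4 h at 37C with doxycycline. Green/red ratio, after filter-overlap correction, defined %Activity; red signal alone was normalised to basal cells and zero luminescence.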

[1] = measured here: CBR red luminescence, cell number
[2] = measured here: IkBa-CBG green luminescence

SMILES	AC50 [1]	AC50 [2]
Cc1nc2sc(-c3ccccc3)cc2c(=O)[nH]1	7.31 µM [falling, partial curve]	–
CCN(CC)C(=O)Nc1ccc(C(=O)OC)cc1	0.13 µM [falling, full curve, poor fit]	–
COc1ccccc1CCNC(=O)Cn1ccc2cc(S(=O)(=O)N3CCCC3)ccc21	3.16 µM [falling, partial curve, poor fit]	–
CCCCCn1nc(C)c(/C=N/NC(=O)c2ccoc2C)c1C	13 µM [falling, partial curve]	–
CCCn1c2c(c(O)c(C(=O)Nc3ccccc3)c1=O)CCCC2	3.55 µM [rising, partial curve, poor fit]	–
O=c1c2oc3ccccc3c2[nH]c(=S)n1-c1ccccc1	18.4 µM [falling, partial curve]	–
CCCc1[nH]nc2c1C1(CCN(C(=O)OCc3ccccc3)CC1)C(C#N)=C(N)O2	7.08 µM [falling, partial curve, poor fit]	–
Cc1cccc(CSc2cccc3cccnc23)c1	35.5 µM [falling, single point]	5.01 µM [falling, single point]
COc1ccccc1CN(Cc1cc2cc(C)ccc2[nH]c1=O)Cc1nnnn1CC1CCCO1 (stereo unspecified)	7.31 µM [falling, partial curve, poor fit]	–
Cc1sc2ncnc(NCc3cccs3)c2c1C	15.8 µM [rising, partial curve]	–
Cc1cccc(NC(=O)CN2CCCN(S(=O)(=O)c3ccc(Br)s3)CC2)c1	17.8 µM [falling, single point]	–
COc1ccc(OC)c2sc(N3CCCCC3)nc12	1.46 µM [rising, partial curve, poor fit]	–
CC(C)(c1ccccc1)c1ccc(OCCN)cc1	25.1 µM [falling, single point]	–
Cc1cccc(NC(=S)NCc2ccco2)n1	0.562 µM [rising, partial curve, poor fit]	–
N#C/C(=N\Nc1cccc(C(F)(F)F)c1)C(=O)c1ccsc1	12.6 µM [falling, partial curve]	–
COc1ccc(C)cc1NC(=O)c1ccc(OCc2c(C)noc2C)cc1	1.84 µM [rising, partial curve]	–
COC(=O)COC(=O)c1ccccc1NC(=O)c1ccccc1	20.6 µM [falling, partial curve]	–
COc1cccc(NC(=O)CSc2nc3ccccc3c(=O)n2Cc2cccs2)c1	2.91 µM [falling, partial curve, poor fit]	–
CC(C)[C@H](NS(=O)(=O)c1ccccc1)C(=O)OCC(=O)NCc1ccc2c(c1)OCO2	29.1 µM [falling, single point]	–
COc1ccc(/C=C\C(=O)O[C@@H]2C(O)C(O[C@@H]3OC(C)[C@H](O[C@@H]4OCC(O[C@H]5O[C@H](CO)[C@@H](O)C(O)C5O)C(O)C4O)C(O)C3O)[C@H](OC(=O)[C@]34CCC(C)(C)C[C@@H]3C3=CCC5[C@@]6(C)CC(O)C(O[C@@H]7OC(CO)C(O)[C@H](O)[C@H]7O)[C@@](C)(C(=O)O)C6CC[C@@]5(C)[C@]3(CO)CC4)O[C@H]2C)cc1 (stereo partly specified)	29.1 µM [falling, single point]	–
COCCCNC(=O)c1ccc2c3c(onc13)-c1ccccc1C2=O	22.4 µM [falling, single point]	–

SMILES	AC50 [1]	AC50 [2]
O=C(CCS(=O)(=O)c1ccccc1)Nc1nc2cc3c(cc2s1)OCCO3	10 µM [falling, partial curve]	–
Cc1ccc(-c2nc(N)n(S(=O)(=O)c3ccc(C)cc3)n2)cc1	3.98 µM [rising, full curve, poor fit]	–
COc1ccc(-c2cnc(SCC(=O)Nc3cc(C)on3)n2Cc2ccco2)cc1	22.4 µM [falling, single point]	–
CCn1c(SCC(=O)Nc2ccccc2)nc2nc3c(cc2c1=O)COC(C)(C)C3	15.8 µM [falling, single point]	–
CN(C)c1ccc(N=Nc2ccc(S(N)(=O)=O)cc2)cc1	15.8 µM [rising, partial curve, poor fit]	–
CCn1ncc(Br)c1C(=O)Nc1ccc(C(=O)OC(C)C)cc1	0.0461 µM [rising, full curve, poor fit]	–
CC1(C)CC(=O)C=C(NC2=CC3OC(c4ccccc4)OCC3OC2=O)C1 (stereo unspecified)	7.31 µM [falling, partial curve]	4.61 µM [rising, full curve, poor fit]
Cc1cccc(-c2nc3cc([N+](=O)[O-])ccc3o2)c1	0.398 µM [rising, full curve, poor fit]	–
CN(C)CCCN(C(=O)c1cc(-c2cccs2)nc2ccccc12)c1nc2ccc(F)cc2s1	35.5 µM [falling, single point]	–
CC1CCc2c(sc3nc(CN4CCOCC4)nc(Sc4ccccc4)c23)C1 (stereo unspecified)	16.4 µM [rising, partial curve, poor fit]	–
O=C(/C=C/c1cnc2ccccc2n1)NC1CCCCCC1	8.2 µM [falling, partial curve]	–
CC1CCCN(C(c2cccs2)c2nnnn2Cc2ccccc2)C1 (stereo unspecified)	18.4 µM [falling, single point]	–
CCOc1ccccc1C=Nc1ccccc1C(=O)Nc1ccccc1	29.1 µM [falling, single point]	–
COc1cc2c(c(OC)c1OC)-c1ccc(OC)c(=O)cc1C(NC(C)=O)CC2 (stereo unspecified)	0.355 µM [rising, full curve, poor fit]	0.251 µM [falling, full curve, poor fit]
Cc1cc(=O)oc2cc(N3C(=O)CC(Cc4ccccc4)C3=O)ccc12 (stereo unspecified)	5.01 µM [rising, partial curve]	–
O=C(Nc1ccc(-c2nc3cccnc3s2)cc1)C1CCCO1 (stereo unspecified)	23.1 µM [falling, partial curve]	–
COc1ccc(N=C2NC(=O)S/C2=C\c2ccc(N(C)C)cc2)cc1	3.16 µM [rising, full curve, poor fit]	–
Cc1c(C)c2ccc(OCC(=O)N3CCOCC3)c(C)c2oc1=O	35.5 µM [falling, single point]	–
Cc1cccc(CC(=O)NCCS(=O)(=O)N2CCN(c3cccc(Cl)c3)CC2)c1	25.9 µM [falling, single point]	–
Cc1cc(C(=S)N2CCOCC2)c(C)n1-c1ccc(Cl)cc1	29.1 µM [falling, single point]	–
Cc1ccc(S(=O)(=O)CC(=O)Nc2nc3c(C)cccc3s2)cc1	35.5 µM [falling, single point]	15.8 µM [rising, partial curve, poor fit]

Taken from the results shown for reference:
SMILES	AC50 [1]	AC50 [2]
O=C(/C=C/c1cnc2ccccc2n1)NC1CCCCCC1	8.2 µM [falling, partial curve]	–
CC1CCCN(C(c2cccs2)c2nnnn2Cc2ccccc2)C1 (stereo unspecified)	18.4 µM [falling, single point]	–
CCOc1ccccc1C=Nc1ccccc1C(=O)Nc1ccccc1	29.1 µM [falling, single point]	–
COc1cc2c(c(OC)c1OC)-c1ccc(OC)c(=O)cc1C(NC(C)=O)CC2 (stereo unspecified)	0.355 µM [rising, full curve, poor fit]	0.251 µM [falling, full curve, poor fit]

(cont.)

SMILES	AC50 [1]	AC50 [2]
COc1cccc(NC(=O)NC2(C(=O)N3CCC(O)CC3)CCCCC2)c1	12.6 µM [falling, partial curve, poor fit]	–
COc1cccc(NC(=O)c2cc(Cl)nnc2Cl)c1	15.8 µM [falling, single point]	–
COc1cccc(NC(=O)C(c2ccccc2)N2CCNC(=O)C2)c1 (stereo unspecified)	7.08 µM [rising, partial curve]	–
COc1ccc(C(=O)OC(C)CN2CCOCC2)cc1 (stereo unspecified)	5.62 µM [rising, single point]	–
CCOc1cc(CNCCCN2CCOCC2)cc(Br)c1OCC(=O)Nc1cccc(C(F)(F)F)c1	14.1 µM [falling, single point]	–
COc1cc2c(cc1OC)/C(=C/C#N)NC(C)(C)C2	0.891 µM [rising, full curve]	2.51 µM [falling, partial curve, poor fit]
Cc1ccc2nc3sc(C(=O)Nc4ccc(N5CCOCC5)cc4)c(N)c3cc2c1	8.2 µM [falling, partial curve, poor fit]	–
O=C(CN1CCc2cc3c(cc2C1)OCCCO3)Nc1cccc([N+](=O)[O-])c1	7.94 µM [falling, partial curve, poor fit]	–
O=C(CCCN1C(=O)/C(=C/c2ccccc2Cl)SC1=S)Nc1ccccn1	2.59 µM [falling, full curve]	–
CC(=O)c1ccc(C(=O)N2CCCC(CO)(Cc3ccccc3C)C2)s1 (stereo unspecified)	5.62 µM [rising, single point]	–
O=C(Nc1ncn[nH]1)c1ccc(Cl)cc1Cl	6.31 µM [rising, single point]	–
CC(NC(=O)c1ccccc1)C(=O)OCC(=O)N1c2ccccc2Sc2ccccc21 (stereo unspecified)	0.731 µM [rising, full curve, poor fit]	–
Cc1[nH]c2ccc(C(=O)Nc3ccncc3)cc2c1C	35.5 µM [falling, single point]	–
CCCSc1ncc(Cl)c(C(=O)Nc2ccc(S(=O)(=O)N3CC(C)OC(C)C3)cc2)n1 (stereo unspecified)	7.31 µM [falling, partial curve]	–
Cc1ccn2c(CNCC3COCCO3)c(C(=O)N3CCCCCC3)nc2c1 (stereo unspecified)	3.55 µM [rising, full curve, poor fit]	–
CCc1ccc(NC(=O)c2ccc3ncsc3c2)cc1	8.91 µM [falling, partial curve]	–
CSCC[C@H](NC(=O)c1cc([N+](=O)[O-])ccc1Cl)c1nc2ccccc2[nH]1	20.6 µM [falling, single point]	–
Cc1cc(C)nc(SCc2ccc([N+](=O)[O-])cc2)n1	4.47 µM [rising, full curve, poor fit]	–
CCOC(=O)c1c(O)c2ccccc2oc1=O	4.47 µM [falling, full curve, poor fit]	–
